Results deposited as PubChem BioAssay AID504793 (Drosophila RNAi Screening Center, 2011).
The deposit covers about 23,000 reagents; shown is a random part of those that have a named target and a result. In the full data, 62 (0.27%) were called active. 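Calls come from follow-up tests whose scores are not deposited, so confirmed genes may have low counts here; counts are not normalised per plate.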 The raw values are shown without normalisation. Entries without a mark were called inactive. A plus sign joins genes that one reagent is predicted to hit.

Assay: 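Genes required for cells to halt at G2/M after double-strand DNA breaks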 (primary screen)
System: Drosophila S2R+ cells
Knock-down reagent: long dsRNA against Drosophila genes, about 0.25 µg dsRNA per well
Timing: 4 days of dsRNA, then 4 hours of drug before read-out
Treatment: doxorubicin 0.5 µM for 4 hours to cause double-strand breaks, in cells also given a low, harmless dose of dsRNA against nbs to sensitise the assay
Measurement: 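Per-well count of mitotic cells stained for phospho-histone H3 after doxorubicin exposure, used as mitotic index; counts are raw and not normalised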
Scale: mitotic cells: higher = more cells in mitosis, weaker G2 arrest
Call rule: 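Genes are called active only when high mitotic counts were reproduced with independent dsRNAs and mitosis was checked for delay without damage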
Meaning of the calls: active = confirmed in follow-up tests; inactive = not confirmed

mitotic cells, replicate 1	target gene	amplicon
4	CG14958 (GeneID 38387)	DRSC08417
14	Cyp6a8 (GeneID 36666)	DRSC07384
2	nec (GeneID 45908)	DRSC06769
5	ATPsynepsilonL (GeneID 326144)	DRSC14548
10	CG31021 (GeneID 43638)	DRSC22319
3	CG31705 (GeneID 34577)	DRSC01991
9	CG31705 (GeneID 34577)	DRSC30021
13	stl (GeneID 37619)	DRSC04396
6	CG15773 (GeneID 31494)	DRSC18079
9	Nrd1 (GeneID 32143)	DRSC19830
11	PH4alphaPV (GeneID 43640)	DRSC22400
7	PH4alphaPV (GeneID 43640)	DRSC28020
2	Frmd5 (GeneID 34398)	DRSC02802
5	CG15614 (GeneID 36899)	DRSC06567
15	lobo (GeneID 4379864)	DRSC14662
7	lobo (GeneID 4379864)	DRSC14663
7	lobo (GeneID 4379864)	DRSC29681
6	AstC (GeneID 34537)	DRSC02403
9	MED7 (GeneID 41288)	DRSC16059
21	MED7 (GeneID 41288)	DRSC29232
6	CG42594 (GeneID 8674091)	DRSC18408
13	CG42594 (GeneID 8674091)	DRSC22978
7	CG42594 (GeneID 8674091)	DRSC25767
9	CG42594 (GeneID 8674091)	DRSC26285
3	CG42594 (GeneID 8674091)	DRSC28979
10	CG13599 (GeneID 42829)	DRSC14602
5	CG16743 (GeneID 34517)	DRSC24981
1	Arl6IP1 (GeneID 42027)	DRSC14231
2	Ntf-2r (GeneID 35101)	DRSC02019
9	Nepl6 (GeneID 33893)	DRSC03242
5	Nepl6 (GeneID 33893)	DRSC26260
9	CG5768 (GeneID 42915)	DRSC15870
2	Cpr67Fa1 (GeneID 39223)	DRSC10932
6	CG2694 (GeneID 31260)	DRSC18470
2	aph-1 (GeneID 33467)	DRSC00547
15	CG13360 (GeneID 31025)	DRSC18536
4	CG13360 (GeneID 31025)	DRSC28479
2	nkd (GeneID 44843)	DRSC11376
5	nkd (GeneID 44843)	DRSC26962
8	CG30034 (retired record) (GeneID 246407)	DRSC05288
3	Pvf1 (GeneID 32876)	DRSC20024
15	mip130 (GeneID 31153)	DRSC18575
19	mip130 (GeneID 31153)	DRSC26990
5	RhoGAP92B (GeneID 42371)	DRSC14507
8	RhoGAP92B (GeneID 42371)	DRSC15637
3	Elp1 (GeneID 41399)	DRSC14250
6	CG14856 (GeneID 41790)	DRSC14980
3	Mur29B (GeneID 319014)	DRSC01018
7	Mur29B (GeneID 319014)	DRSC02376
3	Ravus (GeneID 41626)	DRSC15126
18	Kmn1 (GeneID 32102)	DRSC19666
4	Kmn1 (GeneID 32102)	DRSC27299
4	ver (GeneID 39432)	DRSC10125
7	ver (GeneID 39432)	DRSC28113
33	Rpn9 (GeneID 42802)	DRSC16840
20	Rpn9 (GeneID 42802)	DRSC27177
7	CG31806 (GeneID 261615)	DRSC02787
10	CG31806 (GeneID 261615)	DRSC29784
6	pirk (GeneID 37468)	DRSC04269
6	bt (GeneID 43814)	DRSC17129
12	bt (GeneID 43814)	DRSC17171
5	bt (GeneID 43814)	DRSC36656
10	Fnta (GeneID 33682)	DRSC00557
7	Fnta (GeneID 33682)	DRSC28877
6	Drat (GeneID 35687)	DRSC06600
5	Vha16-1 (GeneID 44307)	DRSC05020
3	eIF3k (GeneID 37475)	DRSC04056
4	eIF3k (GeneID 37475)	DRSC27734
2	mAcon1 (GeneID 44149)	DRSC01853
3	mAcon1 (GeneID 44149)	DRSC24875
13	drosha (GeneID 35747)	DRSC07607
8	CG13151 (GeneID 36374)	DRSC06276
1	CG31955 (GeneID 319045)	DRSC00285
8	SmydA-7 (GeneID 36916)	DRSC07340
2	mus302 (GeneID 39874)	DRSC09905
2	CG31792 (GeneID 35163)	DRSC02604
4	tzn (GeneID 40299)	DRSC11755
8	l(1)G0196 (GeneID 33137)	DRSC20591
4	l(1)G0196 (GeneID 33137)	DRSC20628
9	l(1)G0196 (GeneID 33137)	DRSC20629
135	betaTub85D (GeneID 41124)	DRSC16910
8	betaTub85D (GeneID 41124)	DRSC25043
3	CG17169 (GeneID 3354995)	DRSC20905
5	rdx (GeneID 41704)	DRSC16580
9	rdx (GeneID 41704)	DRSC23120
7	rdx (GeneID 41704)	DRSC29820
1	aurB (GeneID 34504)	DRSC03548
5	aurB (GeneID 34504)	DRSC23324
13	CG15464 (retired record) (GeneID 31436)	DRSC18047
7	CG15464 (retired record) (GeneID 31436)	DRSC22086
9	Hph (GeneID 40633)	DRSC12164
3	Hph (GeneID 40633)	DRSC12251
7	Hph (GeneID 40633)	DRSC25979
10	CG8093 (GeneID 36686)	DRSC07078
5	Eig71Ej (GeneID 39711)	DRSC11157
6	Eig71Ej (GeneID 39711)	DRSC28224
15	ced-6 (GeneID 35971)	DRSC07591
3	ced-6 (GeneID 35971)	DRSC29627
4	CG15362 (GeneID 33371)	DRSC00392
4	pan (GeneID 43769)	DRSC17176
5	pan (GeneID 43769)	DRSC22582
27	pan (GeneID 43769)	DRSC29251
9	Inos (GeneID 35671)	DRSC07655
3	Inos (GeneID 35671)	DRSC27019
4	CG4836 (GeneID 42387)	DRSC15659
4	CG4836 (GeneID 42387)	DRSC24789
6	CG31270 (retired record) (GeneID 318654)	DRSC22252
7	CG31270 (retired record) (GeneID 318654)	DRSC28445
12	Pef (GeneID 36111)	DRSC06695
8	CG32212 + hpRNA:CR33940	DRSC09618

In a second layout: results already given
mitotic cells, replicate 1 | target gene | amplicon
7 | Hph (GeneID 40633) | DRSC25979
10 | CG8093 (GeneID 36686) | DRSC07078
5 | Eig71Ej (GeneID 39711) | DRSC11157
6 | Eig71Ej (GeneID 39711) | DRSC28224
15 | ced-6 (GeneID 35971) | DRSC07591
3 | ced-6 (GeneID 35971) | DRSC29627
4 | CG15362 (GeneID 33371) | DRSC00392
4 | pan (GeneID 43769) | DRSC17176
5 | pan (GeneID 43769) | DRSC22582
27 | pan (GeneID 43769) | DRSC29251
9 | Inos (GeneID 35671) | DRSC07655
3 | Inos (GeneID 35671) | DRSC27019
4 | CG4836 (GeneID 42387) | DRSC15659
4 | CG4836 (GeneID 42387) | DRSC24789
6 | CG31270 (retired record) (GeneID 318654) | DRSC22252
7 | CG31270 (retired record) (GeneID 318654) | DRSC28445
12 | Pef (GeneID 36111) | DRSC06695
